Measured values reported in paper PMC3733081 (Journal of chemical information and modeling, 2013).

Experiment: n-hexadecane/water

## COC(=O)C1=C(C)NC(C)=C(C(=O)OC)C1c1ccccc1[N+](=O)[O-] [nifedipine, reference compound]
  l1 (rate parameter of transport from water to C16): (7.229±2.679)×10^−1 cm/h
  l2 (rate parameter of transport from C16 to water): (1.498±0.418)×10^−1 cm/h
